# Results published in PubChem BioAssay AID1347075 (National Center for Advancing Translational Sciences (NCATS), 2019).
# Among all 400,000 compounds or so, about 5,500 (1.4%) were called active. The inconclusive results got no clear call from the source; some entries with a clear call stand among them for comparison. The call rests on the fitted dose curve; in most records, active means well fitted cell-killing curve with a large enough effect; inconclusive means small, poorly fitted or top-dose-only effect, or effect the other way; inactive means flat fitted curve, though single readings scatter. Where the call is inconclusive, the potency comes from a doubtful curve fit.
# Assay: qHTS assay for MDR1-selective chemotherapeutics: Primary screen using the parental adenocarcinoma cell KB-3-1; further: nearly all actives have a fitted effect of over 60% in size
# Conditions: KB-3-1 viability, CellTiter-Glo ATP luminescence, 72 h; activity change, negative = cytotoxic: at 46.1 µM (top of the series)
# How it was run: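 Cytotoxicity measured as CellTiter-Glo luminescence after 72 h at 37 C. Compound titrations were pinned onto drug-naive KB-3-1 parental adenocarcinoma cells grown in DMEM with 10% FBS, and normalized data fitted to concentration-response curves.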
# On the % scale 0 is the no-effect control and ±100 the full control effect; potency means the concentration at half of the fitted maximal effect.
SMILES,Potency,"activity change, negative = cytotoxic"
Oc1ccc(C[C@H]2CNC(=S)N2CC2CCCN2C[C@H](Cc2ccc(O)cc2)N2C[C@H](Cc3ccccc3)N(CCc3ccccc3)C2=S)cc1 (stereo partly drawn),active: 23.1 µM,–
CC(=O)NC(Cc1cccc(F)c1)C(=O)NC1CCN(C(=O)Nc2ccccc2)CC1 (stereo not drawn),–,inconclusive: -61.3%
CCOC(=O)N1CCN(c2ncc3c(n2)CC(c2ccccc2O)CC3=O)CC1 (stereo not drawn),"inconclusive: 18.4 µM [cytotoxic, single point]",–
Cc1csc(SCC(=O)NC23CC4CC(CC(C4)C2)C3)n1,–,inactive: 7.17%
CCn1c(=O)cc(SCC(=O)NCc2ccco2)c2ccccc21,active: 25.9 µM,–
CC12CCC(C/C1=N\N=C1\NC(=O)/C(=C\c3ccc(Cl)cc3)S1)C2(C)C (stereo not drawn),"inconclusive: 25.9 µM [cytotoxic, single point]",–
Cc1ccc(S(=O)(=O)N/N=C\c2ccccc2OCc2ccccc2)cc1,–,inactive: 1.26%
O=C(Cn1cc[n+](Cc2ccccc2)c1)c1ccc([N+](=O)[O-])cc1,"inconclusive: 32.6 µM [cytotoxic, single point]",–
COc1cc(CNCCc2ccc(S(N)(=O)=O)cc2)ccc1OCc1ccc(Cl)cc1,"inconclusive: 29.1 µM [cytotoxic, single point]",–
CCOC(=O)c1c(C)[nH]c(C)c1S(=O)(=O)N1CCCCC1,–,inactive: 0.982%
CC1CN(S(=O)(=O)N(C)C)CCN1S(=O)(=O)N(C)C (stereo not drawn),–,inactive: 0%
O=C(NC1CCCC1)C1C(c2ccc(C(F)(F)F)cc2)=Nc2ccccc2N1C(=O)c1cccc(C(F)(F)F)c1 (stereo not drawn),–,inactive: -21.2%
COC(=O)c1ccccc1NC(=O)CNc1cc(Cl)ccc1N1CCOCC1,"inconclusive: 29.1 µM [cytotoxic, single point]",–
COc1cc2c3nnc(-c4ccc(F)cc4)c-3cn(Cc3ccccc3F)c2cc1OC,active: 14.6 µM,–
Cc1[nH]n(-c2ccccc2)c(=O)c1N=Nc1ccccc1O,active: 9.2 µM,–
CCn1c(=O)c2cc(C(=O)N(CC(C)C)CC(C)C)sc2c2ccccc21,–,inactive: -10.1%
CCCn1c(=O)c(C(=O)Nc2ccccc2C(=O)OCC)c(O)c2ccccc21,"inconclusive: 35.5 µM [cytotoxic, single point]",–
O=C1NC[C@@H](CCCCN2C[C@H](Cc3ccccc3)N(CCC3CCCCC3)C(=O)C2=O)N(Cc2ccccc2)C1=O,"inconclusive: 29.1 µM [cytotoxic, single point]",–
Cc1cccc(-n2c(SCC(N)=O)nc3c(c2=O)C2(CCCCC2)Cc2ccccc2-3)c1,"inconclusive: 20.6 µM [cytotoxic, single point]",–
Nc1ccc(C(=O)OCc2nc3c(ccc4ccccc43)[nH]2)cc1,"inconclusive: 8.2 µM [cytotoxic, partial curve]",–
Cc1ccc(CNC(=O)CNC(=S)N(Cc2ccccc2)Cc2cccnc2)cc1,–,inactive: -0.932%
OC(CNCc1ccccc1Cl)COc1ccc(F)cc1 (stereo not drawn),"inconclusive: 16.4 µM [rising, partial curve, poor fit]",–
COc1ccc(CC(=O)N2CCN(S(=O)(=O)c3cccs3)CC2)cc1OC,"inconclusive: 14.6 µM [rising, partial curve, poor fit]",–

SMILES,Potency,"activity change, negative = cytotoxic"
Cc1ccc(C(=O)N2CCCCC2C(=O)O)cc1S(=O)(=O)N1CCCCC1 (stereo not drawn),"inconclusive: 2.06 µM [rising, full curve, poor fit]",–
CCOC(=O)c1ccc(NC(=O)CN2c3ccccc3S(=O)(=O)c3ccccc32)cc1,–,inactive: -14.8%
CC1CCN(CC(O)COC2CC(C)CCC2C(C)C)CC1 (stereo not drawn),"inconclusive: 29.1 µM [cytotoxic, single point]",–
Cc1noc(-c2ccc(Cl)cc2)c1C(=O)O/N=C(\N)c1ccc(C(C)(C)C)cc1,"inconclusive: 29.1 µM [cytotoxic, single point]",–
CCCCCCN1C=C/C(=C\C=C(C#N)C#N)c2ccccc21,active: 16.4 µM,–
O=C(NCC1OCCc2ccccc21)c1ccc(NC(=O)c2ccc(Cl)cc2)cc1 (stereo not drawn),"inconclusive: 29.1 µM [cytotoxic, single point]",–
CCS(=O)(=O)c1ccc2oc(SCC(=O)N3c4ccccc4CC3C)nc2c1 (stereo not drawn),"inconclusive: 1.3 µM [rising, full curve]",–
CCOC(=O)Nc1ccc2c(COC(=O)CNS(=O)(=O)c3ccc(NC(C)=O)cc3)cc(=O)oc2c1,"inconclusive: 25.9 µM [cytotoxic, single point]",–
COc1ccc(CCCNC(=O)C2(C)Cc3c(-c4ccc(NC(C)=O)cc4)ccnc3O2)cc1 (stereo not drawn),"inconclusive: 20.6 µM [cytotoxic, single point]",–
COc1cccc(Oc2c(C)oc3c(CN4CCCC4)c(O)ccc3c2=O)c1,–,inactive: -2.89%
COc1ccc2oc(=O)c(C(=O)NCCc3c(C)[nH]c4ccc(Br)cc34)cc2c1,–,inactive: 7.29%
O=C(O)CCNc1ccc(NCCC(=O)O)c2c1C(=O)c1ccccc1C2=O,"inconclusive: 18.4 µM [cytotoxic, partial curve]",–
CCc1ccc(NC(=O)[C@H](Cc2c[nH]c3ccccc23)NC(=O)[C@@H]2Cc3ccccc3CN2)cc1,active: 5.17 µM,–
CCOC(=O)c1c(C)oc2nc(C)nc(N3CCN(c4ccccc4)CC3)c12,"inconclusive: 18.4 µM [cytotoxic, single point]",–
Cc1cc(C(=O)c2ccc(C(C)(C)C)cc2)c(NC(=O)CCl)s1,"inconclusive: 29.1 µM [cytotoxic, single point]",–
COc1cccc(CN2CCN(C(c3ccccc3)c3ccccc3)CC2)c1O,"inconclusive: 18.4 µM [cytotoxic, single point]",–
O=C(NCCCn1ccnc1)C1CCCN(S(=O)(=O)c2cc(Cl)ccc2Cl)C1 (stereo not drawn),"inconclusive: 16.4 µM [cytotoxic, single point]",–
COc1ccc(NS(=O)(=O)c2cc(NC(=O)c3cccs3)ccc2N2CCOCC2)cc1,"inconclusive: 20.6 µM [cytotoxic, single point]",–
Cc1cn2c(=O)cc(COc3ccccc3NC(=O)c3ccccc3C)nc2s1,–,inactive: -3.58%
COc1ccc2[nH]c(=O)c(CN(CC3CCCO3)C(=S)Nc3ccc(C)cc3)cc2c1 (stereo not drawn),"inconclusive: 29.1 µM [cytotoxic, single point]",–
CCC(CC)C(=O)Nc1cccc(C(=O)NCCc2ccc(S(N)(=O)=O)cc2)c1,"inconclusive: 29.1 µM [cytotoxic, single point]",–
O=C1/C(=C\c2cccnc2)SC(=S)N1C1CCS(=O)(=O)C1 (stereo not drawn),"inconclusive: 20.6 µM [cytotoxic, single point]",–
COc1ccc(-c2cc3ccccc3oc2=O)cc1NC(=O)c1ccc([N+](=O)[O-])o1,"inconclusive: 3.66 µM [rising, partial curve, poor fit]",–

# Individual results from above.
# activity change, negative = cytotoxic with `COc1ccc2oc(=O)c(C(=O)NCCc3c(C)[nH]c4ccc(Br)cc34)cc2c1` reads inactive: 7.29%
# Potency with `CCC(CC)C(=O)Nc1cccc(C(=O)NCCc2ccc(S(N)(=O)=O)cc2)c1` reads inconclusive: 29.1 µM [cytotoxic, single point]
# activity change, negative = cytotoxic with `COc1cccc(Oc2c(C)oc3c(CN4CCCC4)c(O)ccc3c2=O)c1` reads inactive: -2.89%

# Continuation:

SMILES,Potency,"activity change, negative = cytotoxic"
CCC(=O)Nc1nc2ccccc2n1Cc1ccc(C)cc1,"inconclusive: 29.1 µM [cytotoxic, single point]",–
Cc1cn([C@H]2C[C@H](O)[C@@H](CNS(=O)(=O)N3CCCC3)O2)c(=O)[nH]c1=O,–,inactive: -13.6%
O=C(O)c1ccccc1SCc1cn2cc(Br)ccc2n1,–,inactive: -3.91%
O=c1c2sc3ccccc3c2n(Cc2cccc(C(F)(F)F)c2)c(=O)n1Cc1ccco1,–,inactive: -3.65%
CCc1ccc(N/C(N)=N/c2nc(CSc3ncccn3)cc(=O)[nH]2)cc1,"inconclusive: 16.4 µM [cytotoxic, single point]",–
COc1ccc(NC(=O)C2(C)Cc3c(-c4cccc(C(F)(F)F)c4)ccnc3O2)cc1OC (stereo not drawn),"inconclusive: 29.1 µM [cytotoxic, single point]",–
Cc1ccc(OCc2cc(C(=O)N3CCCC3)no2)cn1,"inconclusive: 0.206 µM [cytotoxic, full curve, poor fit]",–
CCCc1c(-c2ccccc2F)ncn1CCc1ccccc1OC,"inconclusive: 29.1 µM [cytotoxic, single point]",–
CCOC(=O)N1CCC(NC(=O)CS(=O)(=O)Cc2nc(-c3cccc(OC)c3)oc2C)CC1,"inconclusive: 29.1 µM [cytotoxic, single point]",–
CCCOc1ccc(C(=O)Nc2cc(-c3nc4cc(C)cc(C)c4o3)ccc2C)cc1,–,inactive: 0%
O=C(NCc1ccco1)c1cccc(NC(=O)c2ccccc2)c1,"inconclusive: 2.82 µM [cytotoxic, partial curve, poor fit]",–
COc1ccc(/C=N/NC(=O)Nc2nonc2N)cc1,–,inactive: -11%
COc1ccc2[nH]c(=O)c(CN(CC3CCCO3)C(=O)Nc3ccccc3OC)cc2c1 (stereo not drawn),"inconclusive: 29.1 µM [cytotoxic, single point]",–
O=C(CN1CCOCC1)N1CCOCC1,"inconclusive: 29.1 µM [rising, single point]",–
Cc1ccc(SC[C@H](CC(C)C)N2CCN(CCc3ccccc3)CCC2=O)cc1,"inconclusive: 23.1 µM [cytotoxic, partial curve, poor fit]",–
CCN1C(=O)[C@H]2[C@@H](c3ccc(C)cc3)N3C(=O)N(c4ccc(C)cc4)C(=O)[C@@]3(CC)[C@H]2C1=O,–,inactive: 4.42%
Nc1sccc1C(=O)NCCN1CCOCC1,–,inactive: 6.82%
COc1ncnc2c1ncn2CCCNCC(C)c1ccccc1 (stereo not drawn),–,inactive: 9.14%
O=C(CSc1ncn[nH]1)Nc1ccc(Br)cc1F,"inconclusive: 25.9 µM [rising, single point]",–
O=C(N/N=C/c1ccc(F)cc1)c1c(O)c2ccccc2[nH]c1=O,"inconclusive: 23.1 µM [cytotoxic, single point]",–
COc1ccc(Cc2nnc(NC(=O)c3ccco3)s2)cc1OC,"inconclusive: 1.84 µM [rising, full curve]",–
CCn1nnnc1SCC(=O)N1N=C(c2cccs2)CC1c1cccs1 (stereo not drawn),"inconclusive: 13 µM [rising, partial curve]",–
